Publication PMC9465963
Results are given in words; binding and its absence hold for the method and conditions named. Binding seen in cells or lysates may run through a third protein. Some entries that bind do so weakly or less than the wild type. For some of these results: Where a sequence is shown, tags or fusion partners need not be part of it.

Sequences of proteins named here, by UniProt entry; tags and fusion partners are left off.
UniProt Q9BZB8: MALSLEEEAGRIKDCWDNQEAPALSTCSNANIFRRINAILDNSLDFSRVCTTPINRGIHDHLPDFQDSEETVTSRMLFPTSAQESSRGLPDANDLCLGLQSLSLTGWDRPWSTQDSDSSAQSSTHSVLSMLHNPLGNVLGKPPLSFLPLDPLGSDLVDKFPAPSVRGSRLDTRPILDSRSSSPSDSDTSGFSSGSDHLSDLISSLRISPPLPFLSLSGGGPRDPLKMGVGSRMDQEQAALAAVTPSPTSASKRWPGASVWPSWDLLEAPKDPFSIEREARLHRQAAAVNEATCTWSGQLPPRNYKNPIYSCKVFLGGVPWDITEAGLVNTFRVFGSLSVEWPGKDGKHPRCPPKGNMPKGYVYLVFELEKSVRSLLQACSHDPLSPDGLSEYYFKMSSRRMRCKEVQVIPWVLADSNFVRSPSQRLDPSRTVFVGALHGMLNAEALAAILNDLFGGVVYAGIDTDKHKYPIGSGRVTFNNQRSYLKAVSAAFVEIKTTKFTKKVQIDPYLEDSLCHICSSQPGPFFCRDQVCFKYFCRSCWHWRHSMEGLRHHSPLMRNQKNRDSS
UniProt Q9NZN8: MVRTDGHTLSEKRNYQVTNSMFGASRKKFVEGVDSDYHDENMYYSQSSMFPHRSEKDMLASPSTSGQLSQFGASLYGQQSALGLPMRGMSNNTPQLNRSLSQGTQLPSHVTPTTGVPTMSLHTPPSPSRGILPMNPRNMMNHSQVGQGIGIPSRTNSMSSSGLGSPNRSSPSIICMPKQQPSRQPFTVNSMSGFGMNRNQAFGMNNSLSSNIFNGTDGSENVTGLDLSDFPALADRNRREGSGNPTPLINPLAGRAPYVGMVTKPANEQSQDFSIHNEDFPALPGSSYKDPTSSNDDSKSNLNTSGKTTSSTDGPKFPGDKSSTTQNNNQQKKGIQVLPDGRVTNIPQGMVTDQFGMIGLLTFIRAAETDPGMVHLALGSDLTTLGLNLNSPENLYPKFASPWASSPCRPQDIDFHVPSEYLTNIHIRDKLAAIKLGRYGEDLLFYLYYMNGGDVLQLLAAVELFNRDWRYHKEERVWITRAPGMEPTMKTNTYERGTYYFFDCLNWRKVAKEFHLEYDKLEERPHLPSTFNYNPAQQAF
UniProt Q9H9A5: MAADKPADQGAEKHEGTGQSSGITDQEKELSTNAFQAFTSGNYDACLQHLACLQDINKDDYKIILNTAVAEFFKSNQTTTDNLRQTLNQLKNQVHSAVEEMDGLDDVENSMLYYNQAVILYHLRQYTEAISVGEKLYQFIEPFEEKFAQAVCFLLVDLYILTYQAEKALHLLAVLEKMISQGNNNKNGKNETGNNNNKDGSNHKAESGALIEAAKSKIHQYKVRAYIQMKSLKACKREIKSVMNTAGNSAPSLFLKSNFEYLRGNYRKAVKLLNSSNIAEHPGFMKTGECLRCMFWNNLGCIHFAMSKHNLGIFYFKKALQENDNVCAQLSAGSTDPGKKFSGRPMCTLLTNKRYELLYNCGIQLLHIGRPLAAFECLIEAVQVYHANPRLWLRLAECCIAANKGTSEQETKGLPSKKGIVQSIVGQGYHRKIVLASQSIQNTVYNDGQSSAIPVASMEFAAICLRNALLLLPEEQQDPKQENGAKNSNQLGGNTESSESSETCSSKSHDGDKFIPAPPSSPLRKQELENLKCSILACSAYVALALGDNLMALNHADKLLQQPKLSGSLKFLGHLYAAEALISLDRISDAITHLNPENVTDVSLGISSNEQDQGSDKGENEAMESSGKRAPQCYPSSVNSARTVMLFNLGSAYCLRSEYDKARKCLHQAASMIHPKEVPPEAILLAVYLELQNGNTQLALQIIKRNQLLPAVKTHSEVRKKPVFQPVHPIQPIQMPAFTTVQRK
UniProt A5YKK6: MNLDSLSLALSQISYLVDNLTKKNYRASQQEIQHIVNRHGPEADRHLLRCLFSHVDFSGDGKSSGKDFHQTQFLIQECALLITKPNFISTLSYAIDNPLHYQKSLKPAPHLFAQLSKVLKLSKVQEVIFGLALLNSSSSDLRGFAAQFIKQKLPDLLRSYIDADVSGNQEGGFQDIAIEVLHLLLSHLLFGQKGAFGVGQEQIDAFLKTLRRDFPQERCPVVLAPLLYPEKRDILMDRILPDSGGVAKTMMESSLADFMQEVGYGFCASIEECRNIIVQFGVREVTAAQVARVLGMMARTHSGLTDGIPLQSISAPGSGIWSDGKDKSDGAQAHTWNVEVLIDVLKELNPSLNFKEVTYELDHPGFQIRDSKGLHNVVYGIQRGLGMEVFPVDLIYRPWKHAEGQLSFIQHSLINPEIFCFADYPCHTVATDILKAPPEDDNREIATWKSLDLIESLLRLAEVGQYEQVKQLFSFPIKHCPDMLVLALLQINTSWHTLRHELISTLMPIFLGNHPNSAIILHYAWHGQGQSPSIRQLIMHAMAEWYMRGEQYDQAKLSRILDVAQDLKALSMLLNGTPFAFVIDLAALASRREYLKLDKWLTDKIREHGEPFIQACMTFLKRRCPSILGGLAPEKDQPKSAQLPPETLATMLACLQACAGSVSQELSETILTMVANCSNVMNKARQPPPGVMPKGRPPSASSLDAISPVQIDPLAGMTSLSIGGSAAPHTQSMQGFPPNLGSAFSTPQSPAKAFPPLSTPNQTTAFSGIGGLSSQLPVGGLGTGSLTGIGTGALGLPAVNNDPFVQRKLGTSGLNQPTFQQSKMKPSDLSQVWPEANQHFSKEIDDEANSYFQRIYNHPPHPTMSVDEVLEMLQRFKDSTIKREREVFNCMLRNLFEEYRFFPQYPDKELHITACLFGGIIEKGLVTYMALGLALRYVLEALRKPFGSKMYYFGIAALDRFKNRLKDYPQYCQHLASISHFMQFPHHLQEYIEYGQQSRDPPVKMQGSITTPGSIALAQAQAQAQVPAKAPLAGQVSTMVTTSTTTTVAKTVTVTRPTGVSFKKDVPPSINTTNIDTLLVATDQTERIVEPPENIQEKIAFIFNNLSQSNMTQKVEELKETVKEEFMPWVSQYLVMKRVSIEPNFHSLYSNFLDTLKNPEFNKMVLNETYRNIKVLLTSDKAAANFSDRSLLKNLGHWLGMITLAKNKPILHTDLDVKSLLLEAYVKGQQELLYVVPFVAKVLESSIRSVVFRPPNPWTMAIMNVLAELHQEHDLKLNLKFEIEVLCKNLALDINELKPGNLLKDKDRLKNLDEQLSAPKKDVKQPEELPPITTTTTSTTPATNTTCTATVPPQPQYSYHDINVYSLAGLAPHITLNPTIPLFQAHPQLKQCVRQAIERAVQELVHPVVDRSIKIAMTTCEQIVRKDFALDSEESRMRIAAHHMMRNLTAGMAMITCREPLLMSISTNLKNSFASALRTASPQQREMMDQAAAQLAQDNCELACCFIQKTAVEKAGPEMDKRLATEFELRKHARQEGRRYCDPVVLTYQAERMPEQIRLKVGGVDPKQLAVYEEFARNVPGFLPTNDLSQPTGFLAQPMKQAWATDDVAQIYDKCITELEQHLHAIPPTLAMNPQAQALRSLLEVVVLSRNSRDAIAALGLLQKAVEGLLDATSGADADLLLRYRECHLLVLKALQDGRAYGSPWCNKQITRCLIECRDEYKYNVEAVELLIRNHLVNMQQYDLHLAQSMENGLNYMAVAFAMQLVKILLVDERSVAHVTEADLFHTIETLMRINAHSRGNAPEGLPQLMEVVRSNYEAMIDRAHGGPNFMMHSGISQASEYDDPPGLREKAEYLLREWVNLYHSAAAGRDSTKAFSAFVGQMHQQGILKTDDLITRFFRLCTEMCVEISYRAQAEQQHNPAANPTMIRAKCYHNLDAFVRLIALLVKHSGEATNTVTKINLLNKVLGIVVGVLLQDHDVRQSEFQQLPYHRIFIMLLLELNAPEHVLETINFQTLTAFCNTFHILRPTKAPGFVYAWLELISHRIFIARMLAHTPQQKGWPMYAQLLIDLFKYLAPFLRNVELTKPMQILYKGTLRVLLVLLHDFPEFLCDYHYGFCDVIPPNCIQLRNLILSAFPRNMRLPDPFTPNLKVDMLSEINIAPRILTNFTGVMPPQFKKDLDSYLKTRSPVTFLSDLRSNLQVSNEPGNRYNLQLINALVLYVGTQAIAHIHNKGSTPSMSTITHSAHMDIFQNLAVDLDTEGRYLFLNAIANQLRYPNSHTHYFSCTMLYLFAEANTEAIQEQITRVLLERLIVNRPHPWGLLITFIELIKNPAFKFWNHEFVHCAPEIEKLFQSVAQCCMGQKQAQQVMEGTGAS
UniProt Q9UIV1: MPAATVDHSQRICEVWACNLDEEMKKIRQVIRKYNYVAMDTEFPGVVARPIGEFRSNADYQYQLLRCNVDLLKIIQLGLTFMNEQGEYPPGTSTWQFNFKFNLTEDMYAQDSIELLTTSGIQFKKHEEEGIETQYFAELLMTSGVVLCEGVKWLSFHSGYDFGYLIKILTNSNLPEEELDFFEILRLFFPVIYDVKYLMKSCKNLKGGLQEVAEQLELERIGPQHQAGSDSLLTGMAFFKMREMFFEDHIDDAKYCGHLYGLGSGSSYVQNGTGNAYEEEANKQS

T1: SBP-tagged mouse CPEB2 (mouse) (UniProt Q812E0)
T1 sequence: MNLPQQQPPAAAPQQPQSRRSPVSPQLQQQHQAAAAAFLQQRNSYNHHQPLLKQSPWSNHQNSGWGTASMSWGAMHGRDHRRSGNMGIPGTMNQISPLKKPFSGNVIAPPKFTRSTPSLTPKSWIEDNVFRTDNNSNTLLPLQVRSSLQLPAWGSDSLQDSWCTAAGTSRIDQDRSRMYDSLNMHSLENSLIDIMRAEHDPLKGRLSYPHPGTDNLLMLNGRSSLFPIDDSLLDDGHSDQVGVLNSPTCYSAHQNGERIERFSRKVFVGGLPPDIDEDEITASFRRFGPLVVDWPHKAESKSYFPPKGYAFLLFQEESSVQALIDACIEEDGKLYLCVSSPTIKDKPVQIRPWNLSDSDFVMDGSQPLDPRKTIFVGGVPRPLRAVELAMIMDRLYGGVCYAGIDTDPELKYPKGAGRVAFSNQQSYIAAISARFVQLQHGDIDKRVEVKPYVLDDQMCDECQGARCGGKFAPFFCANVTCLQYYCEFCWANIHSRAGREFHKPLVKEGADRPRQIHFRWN

T2: SBP-tagged human CPEB3 (human) (UniProt Q8NE35)
T2 sequence: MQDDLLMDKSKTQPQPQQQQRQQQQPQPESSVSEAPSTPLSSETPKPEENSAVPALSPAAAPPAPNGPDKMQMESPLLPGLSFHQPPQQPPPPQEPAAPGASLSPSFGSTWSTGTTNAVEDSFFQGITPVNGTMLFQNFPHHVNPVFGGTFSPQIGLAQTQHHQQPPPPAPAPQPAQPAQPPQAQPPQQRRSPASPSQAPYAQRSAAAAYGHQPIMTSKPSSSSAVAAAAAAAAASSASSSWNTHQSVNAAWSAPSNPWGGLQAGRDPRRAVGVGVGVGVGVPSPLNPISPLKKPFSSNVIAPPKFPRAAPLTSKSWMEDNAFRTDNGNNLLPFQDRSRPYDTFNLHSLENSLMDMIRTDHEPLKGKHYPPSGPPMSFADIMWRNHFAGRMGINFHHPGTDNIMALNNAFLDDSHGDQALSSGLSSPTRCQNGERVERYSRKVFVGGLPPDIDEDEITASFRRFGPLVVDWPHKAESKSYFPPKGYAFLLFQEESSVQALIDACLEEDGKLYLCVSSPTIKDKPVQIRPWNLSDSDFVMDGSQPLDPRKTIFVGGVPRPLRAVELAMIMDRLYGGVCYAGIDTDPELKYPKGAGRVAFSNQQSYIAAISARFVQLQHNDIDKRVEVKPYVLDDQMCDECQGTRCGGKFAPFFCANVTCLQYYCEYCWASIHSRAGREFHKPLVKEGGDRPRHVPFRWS

T3: streptavidin binding peptide (SBP)-tagged CPEB4 (human) (UniProt Q17RY0)
T3 sequence: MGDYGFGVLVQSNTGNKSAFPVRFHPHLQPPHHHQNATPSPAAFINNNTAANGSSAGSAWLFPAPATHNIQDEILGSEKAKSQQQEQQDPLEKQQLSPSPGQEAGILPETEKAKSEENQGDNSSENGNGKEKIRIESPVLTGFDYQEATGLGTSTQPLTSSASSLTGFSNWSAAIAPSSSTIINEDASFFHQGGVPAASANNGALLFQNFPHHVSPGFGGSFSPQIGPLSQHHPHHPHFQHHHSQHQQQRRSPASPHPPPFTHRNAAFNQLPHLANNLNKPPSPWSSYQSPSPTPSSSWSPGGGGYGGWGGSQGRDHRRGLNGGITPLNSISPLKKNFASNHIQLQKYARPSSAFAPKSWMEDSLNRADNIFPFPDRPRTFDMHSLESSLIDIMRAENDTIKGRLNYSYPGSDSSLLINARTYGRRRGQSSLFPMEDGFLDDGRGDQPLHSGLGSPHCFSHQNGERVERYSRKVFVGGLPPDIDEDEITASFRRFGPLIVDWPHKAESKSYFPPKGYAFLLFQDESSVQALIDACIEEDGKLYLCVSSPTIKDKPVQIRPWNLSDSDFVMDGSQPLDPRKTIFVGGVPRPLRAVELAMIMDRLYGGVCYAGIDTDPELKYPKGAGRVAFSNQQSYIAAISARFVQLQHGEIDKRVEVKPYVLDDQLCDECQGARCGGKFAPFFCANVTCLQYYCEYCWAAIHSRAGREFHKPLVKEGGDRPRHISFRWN


Key:
[1] = target: T1, SBP-tagged mouse CPEB2 (mouse); test: co-IP; SBP-tagged CPEB precipitated from HeLa lysate with streptavidin beads (3 h, 4 °C; 20 mM Tris-HCl pH 7.5, 150 mM NaCl, 1.5 mM MgCl2, 1 mM DTT, 0.05% NP-40), endogenous partners detected by western blot; no RNase; Fig. 3A, Fig. 7A, and Fig. 3B after 20 nM RMD with or without overexpression of HA-TOB1
[2] = target: T2, SBP-tagged human CPEB3 (human); test: as above
[3] = target: SBP-tagged human CPEB1 (human) (UniProt Q9BZB8); test: as above
[4] = target: T1, SBP-tagged mouse CPEB2 (mouse); test: co-IP; as a1, IP with streptavidin beads in the presence of 26 U RNase A/T1 (Fig. 7A)
[5] = target: T2, SBP-tagged human CPEB3 (human); test: as above
[6] = target: SBP-tagged human CPEB1 (human) (UniProt Q9BZB8); test: as above
[7] = target: T3, streptavidin binding peptide (SBP)-tagged CPEB4 (human); test: co-IP; SBP-tagged CPEB precipitated from HeLa lysate with streptavidin beads (3 h, 4 °C; 20 mM Tris-HCl pH 7.5, 150 mM NaCl, 1.5 mM MgCl2, 1 mM DTT, 0.05% NP-40), endogenous partners detected by western blot; no RNase; Fig. 3A, Fig. 7A, and Fig. 3B after 20 nM RMD with or without overexpression of HA-TOB1

binding [1] | binding [2] | binding [3] | binding [4] | binding [5] | binding [6] | binding [7] | Molecule
binds | binds | binds | binds | binds | binds |  | NOT2 (from UniProt Q9NZN8 1-540)
binds | binds | binds | binds | binds | binds |  | NOT10 (from UniProt Q9H9A5 1-744)
binds | binds | binds | binds | binds | binds |  | NOT1 (from UniProt A5YKK6 1-2376)
binds | binds | binds | binds | binds | binds |  | NOT7/CAF1a (from UniProt Q9UIV1 1-285)
 |  |  |  |  |  | binds | TOB1 (protein, UniProt P50616 1-345) MQLEIQVALNFIISYLYNKLPRRRVNIFGEELERLLKKKYEGHWYPEKPYKGSGFRCIHIGEKVDPVIEQASKESGLDIDDVRGNLPQDLSVWIDPFEVSYQIGEKGPVKVLYVDDNNENGCELDKEIKNSFNPEAQVFMPISDPASSVSSSPSPPFGHSAAVSPTFMPRSTQPLTFTTATFAATKFGSTKMKNSGRSNKVARTSPINLGLNVNDLLKQKAISSSMHSLYGLGLGSQQQPQQQQQPAQPPPPPPPPQQQQQQKTSALSPNAKEFIFPNMQGQGSSTNGMFPGDSPLNLSPLQYSNAFDVFAAYGGLNEKSFVDGLNFSLNNMQYSNQQFQPVMAN
